Values from PubChem BioAssay AID1224829 (NIAID, 2016)
This is a random part of about 3,800 reagents tested. 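Calls cover raised and lowered translocation; gene median uses one vendor's three siRNAs; qiagen siRNAs acted more weakly than ambion siRNAs.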 Unmarked entries are inactive. The numbers tell different reagents against one gene apart.

- Screen: 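Secondary check of hits that alter LPS-induced p65 translocation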 (follow-up of hits)
- Cells: mouse RAW264.7 G9 macrophage reporter cells
- Reagent: single siRNA against mouse genes, 100 nM
- Time to read-out: 2 days of siRNA knock-down, then 40 min of LPS before fixing
- Treatment: LPS (Salmonella minnesota R595) at 10 ng/ml
- Measurement: 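High-content images after 40 min LPS exposure; GFP-p65 nucleus to surrounding ring signal ratio, normalised to plate median and non-targeting control wells, expressed as z-score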
- Direction: p65 translocation z-score and gene median z-score, per vendor: higher = more nuclear NF-kappaB p65 after LPS
- Active means: 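An siRNA is called active when the mean z-score of its two replicates is above 2 or below -2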
- Calls: active = changed p65 translocation (either direction); inactive = no clear change

target gene | reagent | siRNA vendor or control pool | p65 translocation z-score, replicate mean | p65 translocation z-score, replicate 1 | p65 translocation z-score, replicate 2 | gene median z-score, per vendor
Stat4 | 1 | ambion single siRNA | 0.831 | 1.36 | 0.306 | 0.667
Stat4 | 2 | ambion single siRNA | 1.93 | 2.83 | 1.03 | 0.667
Stat4 | 3 | ambion single siRNA | -3.85 (active) | -4.66 | -3.04 | 0.667
Stat4 | 4 | qiagen single siRNA | 0.84 | 0.385 | 1.29 | 0.906
Stat4 | 5 | qiagen single siRNA | 2.94 (active) | 1.05 | 4.83 | 0.906
Stat4 | 6 | qiagen single siRNA | 0.443 | 0.129 | 0.758 | 0.906
Atg4d | 1 | ambion single siRNA | -1.21 | -1.12 | -1.3 | -1.32
Atg4d | 2 | ambion single siRNA | -1.4 | -0.68 | -2.13 | -1.32
Atg4d | 3 | ambion single siRNA | -1.41 | -1.5 | -1.33 | -1.32
Atg4d | 4 | qiagen single siRNA | 0.739 | 0.49 | 0.988 | 0.739
Atg4d | 5 | qiagen single siRNA | 5.31 (active) | 4.25 | 6.37 | 0.739
Atg4d | 6 | qiagen single siRNA | -1.57 | -1.96 | -1.18 | 0.739
Nat2 | 1 | ambion single siRNA | 1.44 | 1.68 | 1.19 | -3.58
Nat2 | 2 | ambion single siRNA | -4.34 (active) | -4.93 | -3.74 | -3.58
Nat2 | 3 | ambion single siRNA | -4.41 (active) | -5.39 | -3.42 | -3.58
Nat2 | 4 | qiagen single siRNA | 0.579 | 0.425 | 0.733 | 1.21
Nat2 | 5 | qiagen single siRNA | 1.37 | -0.771 | 3.51 | 1.21
Nat2 | 6 | qiagen single siRNA | 2.02 (active) | 2.35 | 1.69 | 1.21
Adcy9 | 1 | ambion single siRNA | -1.84 | -1.08 | -2.6 | -0.886
Adcy9 | 2 | ambion single siRNA | -0.186 | 0.318 | -0.69 | -0.886
Adcy9 | 3 | ambion single siRNA | -1.58 | -2.6 | -0.554 | -0.886
Adcy9 | 4 | qiagen single siRNA | -0.0756 | -0.293 | 0.142 | -0.0756
Adcy9 | 5 | qiagen single siRNA | 0.296 | 0.178 | 0.415 | -0.0756
Adcy9 | 6 | qiagen single siRNA | -3.98 (active) | -3.42 | -4.54 | -0.0756

An excerpt of the results above, as a working copy:
target gene | reagent | siRNA vendor or control pool | p65 translocation z-score, replicate mean | p65 translocation z-score, replicate 1 | p65 translocation z-score, replicate 2 | gene median z-score, per vendor
Atg4d | 5 | qiagen single siRNA | 5.31 (active) | 4.25 | 6.37 | 0.739
Atg4d | 6 | qiagen single siRNA | -1.57 | -1.96 | -1.18 | 0.739
Nat2 | 1 | ambion single siRNA | 1.44 | 1.68 | 1.19 | -3.58
